# This is one part of the list.
# B1: ArathEULS3 TAP (Arabidopsis thaliana) (protein)
# chain: IDENLYFQGGSMDEKTTGWRGGHVVEGLAGELEQLRARLEHHPQGQREPGGGGSLEITSLYKKAGFMEHHHQHHRHHQRDDGEDDRQSFGVPPPHVDAPPQPHGLYQSQPHFDPYAPTPQAPAPYRSETQFEPHAPPPYRSEPYFETPAPPPSFGHVSHVGHQSPNESYPPEHHRYGGYQQPSNSLLESHGDHSGVTHVAHHSSNQPQSSSGVYHKPDENRLPDNLAGLAGRATVKVYSKAEPNYNLTIRDGKVILAPADPSDEAQHWYKDEKYSTKVKDADGHPCFALVNKATGEAMKHSVGATHPVHLIRYVPDKLDESVLWTESKDFGDGYRTIRMVNNTRLNVDAYHGDSKSGGVRDGTTIVLWDWNKGDNQLWKIFPF
# Legend:
# Assay in all cases: glycan array binding signal (z-score within array); higher = stronger binding
# Conditions in all cases: glycan notation: IUPAC condensed, linker removed
# Neu5Ac(a2-8)Neu5Ac = molecular target: Neu5Ac(a2-8)Neu5Ac
# Procedure, shortened: (§1)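 Glycan array binding is given as a within-array Z-score, which can be read as non-binding when negative. The arrays, 3228 of them, came from the Consortium for Functional Glycomics database and were retained only where the protein sequence was available. Z-scores were averaged across arrays of the same protein sequence at different concentrations or buffers and across linkers.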
# [1] = molecular target: Neu5Ac(a2-8)Neu5Ac(a2-3)Gal(b1-3)GalNAc(b1-4)[Neu5Ac(a2-3)]Gal(b1-4)Glc
# Procedure, shortened: as §1
# [2] = molecular target: Neu5Ac(a2-8)Neu5Ac(a2-3)Gal(b1-3)GalNAc(b1-4)[Neu5Ac(a2-8)Neu5Ac(a2-3)]Gal(b1-4)Glc
# Procedure, shortened: as §1
# [3] = molecular target: Neu5Ac(a2-8)Neu5Ac(a2-3)Gal(b1-4)Glc
# Procedure, shortened: as §1
# [4] = molecular target: Neu5Ac(a2-8)Neu5Ac(a2-3)Gal(b1-4)GlcNAc
# Procedure, shortened: as §1
# [5] = molecular target: Neu5Ac(a2-8)Neu5Ac(a2-3)[Gal(b1-3)GalNAc(b1-4)]Gal(b1-4)Glc
# Procedure, shortened: as §1
# [6] = molecular target: Neu5Ac(a2-8)Neu5Ac(a2-3)[GalNAc(b1-4)]Gal(b1-4)Glc
# Procedure, shortened: as §1
# [7] = molecular target: Neu5Ac(a2-8)Neu5Ac(a2-8)Neu5Ac
# Procedure, shortened: as §1
# [8] = molecular target: Neu5Ac(a2-8)Neu5Ac(a2-8)Neu5Ac(a2-3)Gal(b1-4)Glc
# Procedure, shortened: as §1
# [9] = molecular target: Neu5Ac(a2-8)Neu5Ac(a2-8)Neu5Ac(a2-3)[Gal(b1-3)GalNAc(b1-4)]Gal(b1-4)Glc
# Procedure, shortened: as §1
# [10] = molecular target: Neu5Ac(a2-8)Neu5Ac(a2-8)Neu5Ac(a2-3)[GalNAc(b1-4)]Gal(b1-4)Glc
# Procedure, shortened: as §1
# [11] = molecular target: Neu5Ac(a2-8)Neu5Ac(a2-8)Neu5Ac(a2-8)Neu5Ac(a2-3)[GalNAc(b1-4)]Gal(b1-4)Glc
# Procedure, shortened: as §1
# [12] = molecular target: Neu5Ac(a2-8)Neu5Gc(a2-3)Gal(b1-4)GlcNAc
# Procedure, shortened: as §1
# [13] = molecular target: Neu5Ac(b2-6)Gal(b1-4)GlcNAc
# Procedure, shortened: as §1
# Neu5Ac(b2-6)GalNAc = molecular target: Neu5Ac(b2-6)GalNAc
# Procedure, shortened: as §1
# [14] = molecular target: Neu5Ac9Ac(a2-3)Gal(b1-3)GlcNAc
# Procedure, shortened: as §1
# [15] = molecular target: Neu5Ac9Ac(a2-3)Gal(b1-4)GlcNAc
# Procedure, shortened: as §1
# [16] = molecular target: Neu5Ac9Ac(a2-6)Gal(b1-4)GlcNAc
# Procedure, shortened: as §1
# [17] = molecular target: Neu5Gc(a2-3)Gal(b1-3)GlcNAc
# Procedure, shortened: as §1
# [18] = molecular target: Neu5Gc(a2-3)Gal(b1-3)[Fuc(a1-4)]GlcNAc
# Procedure, shortened: as §1
# Neu5Gc(a2-3)Gal(b1-4)Glc = molecular target: Neu5Gc(a2-3)Gal(b1-4)Glc
# Procedure, shortened: as §1
# [19] = molecular target: Neu5Gc(a2-3)Gal(b1-4)GlcNAc
# Procedure, shortened: as §1
# [20] = molecular target: Neu5Gc(a2-3)Gal(b1-4)GlcNAc(b1-3)Gal(b1-4)GlcNAc(b1-2)Man(a1-3)[Neu5Gc(a2-3)Gal(b1-4)GlcNAc(b1-3)Gal(b1-4)GlcNAc(b1-2)Man(a1-6)]Man(b1-4)GlcNAc(b1-4)GlcNAc
# Procedure, shortened: as §1
# [21] = molecular target: Neu5Gc(a2-3)Gal(b1-4)[Fuc(a1-3)]GlcNAc
# Procedure, shortened: as §1
# [22] = molecular target: Neu5Gc(a2-6)Gal(b1-4)GlcNAc
# Procedure, shortened: as §1
# Neu5Gc(a2-6)GalNAc = molecular target: Neu5Gc(a2-6)GalNAc
# Procedure, shortened: as §1
# [23] = molecular target: Neu5Gc(a2-8)Neu5Ac(a2-3)Gal(b1-4)GlcNAc
# Procedure, shortened: as §1
# [24] = molecular target: Neu5Gc(a2-8)Neu5Gc(a2-3)Gal(b1-4)GlcNAc
# Procedure, shortened: as §1
# [25] = molecular target: Neu5Gc(a2-8)Neu5Gc(a2-3)Gal(b1-4)GlcNAc(b1-3)Gal(b1-4)GlcNAc
# Procedure, shortened: as §1
# [26] = molecular target: Neu5Gc(a2-8)Neu5Gc(a2-6)Gal(b1-4)GlcNAc
# Procedure, shortened: as §1
# [27] = molecular target: Neu5Gc(b2-6)Gal(b1-4)GlcNAc
# Procedure, shortened: as §1
binder,measurement,setting,value
B1,glycan array binding signal (z-score),Neu5Ac(a2-8)Neu5Ac,-0.635
same,glycan array binding signal (z-score),[1],-0.071
same,glycan array binding signal (z-score),[2],2.9
same,glycan array binding signal (z-score),[3],-2.44
same,glycan array binding signal (z-score),[4],-0.433
same,glycan array binding signal (z-score),[5],2
same,glycan array binding signal (z-score),[6],-0.243
same,glycan array binding signal (z-score),[7],-0.158
same,glycan array binding signal (z-score),[8],-0.143
same,glycan array binding signal (z-score),[9],-0.442
same,glycan array binding signal (z-score),[10],-0.112
same,glycan array binding signal (z-score),[11],0.135
same,glycan array binding signal (z-score),[12],-0.359
same,glycan array binding signal (z-score),[13],-0.632
same,glycan array binding signal (z-score),Neu5Ac(b2-6)GalNAc,-0.325
same,glycan array binding signal (z-score),[14],1.75
same,glycan array binding signal (z-score),[15],-0.138
same,glycan array binding signal (z-score),[16],0.744
same,glycan array binding signal (z-score),[17],0.655
same,glycan array binding signal (z-score),[18],-0.71
same,glycan array binding signal (z-score),Neu5Gc(a2-3)Gal(b1-4)Glc,-0.271
same,glycan array binding signal (z-score),[19],-1.29
same,glycan array binding signal (z-score),[20],0.599
same,glycan array binding signal (z-score),[21],1.15
same,glycan array binding signal (z-score),[22],0.214
same,glycan array binding signal (z-score),Neu5Gc(a2-6)GalNAc,-0.53
same,glycan array binding signal (z-score),[23],-0.325
same,glycan array binding signal (z-score),[24],0.412
same,glycan array binding signal (z-score),[25],0.691
same,glycan array binding signal (z-score),[26],-0.043
same,glycan array binding signal (z-score),[27],0.874

# 2 entries from above, with tabs.
binder	measurement	setting	value
B1	glycan array binding signal (z-score)	[6]	-0.243
same	glycan array binding signal (z-score)	[7]	-0.158

# Reference: the supplement of paper PMC8728848
